Source: paper PMC5748785
Results are given in words; binding and its absence hold for the method and conditions named. Binding seen in cells or lysates may run through a third protein. Some binding calls cover weakened binding; strength is not graded here. Where a sequence is shown, tags or fusion partners need not be part of it.

Biological target: T1, ZRT/IRT-like protein 14 (ZIP14), endogenously FLAG-tagged (human (endogenous in HepG2)) (UniProt Q15043)
T1 sequence: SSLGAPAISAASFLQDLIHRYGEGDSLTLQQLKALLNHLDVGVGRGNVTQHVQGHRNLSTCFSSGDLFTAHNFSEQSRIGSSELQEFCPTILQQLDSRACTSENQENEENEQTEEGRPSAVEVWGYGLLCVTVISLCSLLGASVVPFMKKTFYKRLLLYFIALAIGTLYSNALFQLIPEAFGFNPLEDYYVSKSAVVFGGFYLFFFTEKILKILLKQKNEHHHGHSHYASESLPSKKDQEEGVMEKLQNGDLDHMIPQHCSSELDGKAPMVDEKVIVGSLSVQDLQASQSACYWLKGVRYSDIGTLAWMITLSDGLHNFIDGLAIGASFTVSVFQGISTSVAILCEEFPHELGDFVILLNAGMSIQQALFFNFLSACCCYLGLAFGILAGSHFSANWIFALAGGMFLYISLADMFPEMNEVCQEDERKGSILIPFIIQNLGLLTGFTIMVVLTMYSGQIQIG
Test: co-IP; post-nuclear supernatant of HepG2-ZIP14-FLAG cells in NETT buffer (150 mM NaCl, 5 mM EDTA, 10 mM Tris, 1% Triton X-100, pH 7.4) incubated with anti-FLAG (M2) agarose beads 1 h at 4 °C; eluted with 0.5 mg/mL triple FLAG peptide; blot for p53; cells treated with negative control or p53-targeting siRNA for 48 h

binding: binds
Substance: tumor suppressor p53 (from UniProt P04637 1-393)
